These are yes or no findings as the source states them, for the method shown. Some entries that bind do so weakly or less than the wild type.
Molecular target: T1, EIIA^Glc (UniProt P69783 2-169)
T1 construct: EIIA^Glc, functional subunit of Enzyme II of the bacterial glucose phosphotransferase system; Species is stated only for enzyme I (E. coli); source: purified as previously described (Garrett et al. 1999; Xing et al. 2014)
Experiment: cross-linking; DOPA2 (0.005-0.8 mmol/L, room temperature, 10 min) or DSS (0.05-0.8 mmol/L, room temperature, 1 h); proteins at 1 x KD and 10 x KD in 20 mmol/L HEPES, 150 mmol/L NaCl, pH 7.4; read by SDS-PAGE and by LC-MS/MS after in-gel or in-solution digestion; both purified

Protein sequences, listed by entry. Tags and fused reporters are not part of them. Residues count along the entry.
UniProt P69783, residues 2-169: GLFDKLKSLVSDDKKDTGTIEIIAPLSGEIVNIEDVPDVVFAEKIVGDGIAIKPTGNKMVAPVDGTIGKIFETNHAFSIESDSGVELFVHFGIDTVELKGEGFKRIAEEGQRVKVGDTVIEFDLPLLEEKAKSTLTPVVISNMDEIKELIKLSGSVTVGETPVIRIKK

B1: EIIB^Glc (domain or fragment)
chain: EDATEDAKATGTSEMAPALVAAFGGKENITNLDACITRLRVSVADVSKVDQAGLKKLGAAGVVVAGSGVQAIFGTKSDNLKTEMDEYIRN
notes: EIIB^Glc, functional subunit of Enzyme II of the bacterial glucose phosphotransferase system; Species is stated only for enzyme I (E. coli); source: purified as previously described (Garrett et al. 1999; Xing et al. 2014)
binding: binds weakly

Source: PMC10166511, “Fast cross-linking by DOPA2 promotes the capturing of a stereospecific protein complex over nonspecific encounter complexes” (Biophysics Reports, 2022)
